Results from PMC11790884.
For at least one entry, the source does not settle the construct or the ends of the probe. The comparison behind a weaker result is the experiment's own reference, which may not be listed here. At least one verdict rests on a figure or table, not on a statement of the authors.

System: c-myc
Assay: SPR
Settings: SPR (OpenSPR, streptavidin sensor): 20 mM HEPES, 150 mM NaCl, pH 7.4, 20 ul/min, 3% BSA block, described for DHA-oligo, c-myc conditions and temperature not stated, recombinant protein, single-stranded DNA

“TCAGCCTCGGAGGCATCAGC [PD-L1p9C (biotinylated)]”: binds more weakly (with DHA (inhibits c-myc recruitment, P = 0.0002)); binds (without DHA).
